# PubChem BioAssay AID1159578 | Peter MacCallum Cancer Centre | 2015
# Screen: 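Genome-wide hunt for genes controlling movement of lymphatic endothelial cells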 (primary screen)
# System: human lymphatic endothelial cells
# Reagent: siRNA pool against human genes, 40 nM
# Time to read-out: 48 h after transfection
# Measurement: 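High-content imaging of dye-stained cells in a scratch assay measures filled wound area and nuclei per well; duplicate means given as ratio to mock and robust z-score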
# Scale: migration robust z-score: higher = faster migration into the scratch; migration relative to mock: higher = more scratch area covered than mock; nuclei per well: higher = more cells in the well
# Active means: 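Migration changed when robust z exceeds 2 or falls below -2 and mean nuclei number is at least 3300; otherwise not called changed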
# Calls: active = migration changed; inactive = no migration change, or too few cells
# The deposit covers about 18,000 reagents; below is an unselected part. In the full data, about 1,030 (5.7%) got an active call. 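Inactive calls also include pools with fewer than 3300 nuclei, whose migration was not assessed.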 Raw values vary from plate to plate and are shown uncorrected.
gene,migration robust z-score,migration class with cell-count check,migration relative to mock,"nuclei per well, duplicate mean",Call
FAM117A,0.82,migration z between -2 and 2; enough cells,1.09,4862,inactive
CTCFL,-0.02,migration z between -2 and 2; enough cells,0.88,4086,inactive
SAXO6,1.07,migration z between -2 and 2; enough cells,1.16,5945,inactive
TMEM156,-0.22,migration z between -2 and 2; enough cells,0.83,6984,inactive
GPR62,-0.24,migration z between -2 and 2; enough cells,0.76,7400,inactive
SHARPIN,1.05,migration z between -2 and 2; enough cells,1.16,6281,inactive
RECQL5,0.86,migration z between -2 and 2; enough cells,0.97,4508,inactive
NAPEPLD,0.82,migration z between -2 and 2; enough cells,1.09,7217,inactive
TCEAL2,-0.41,migration z between -2 and 2; enough cells,0.78,5680,inactive
APOM,-0.26,migration z between -2 and 2; enough cells,0.82,6636,inactive
CRHR1,-0.36,migration z between -2 and 2; enough cells,0.74,5440,inactive
ZNF48,0.08,migration z between -2 and 2; enough cells,0.9,4840,inactive
SLC6A18,0.17,migration z between -2 and 2; enough cells,0.93,6372,inactive
PELP1,0.01,migration z between -2 and 2; enough cells,0.9,4364,inactive
SF3A3,-1.25,migration z between -2 and 2; enough cells,0.56,5292,inactive
TRIM77,0.34,migration z between -2 and 2; enough cells,0.87,6296,inactive
FECH,-0.96,migration z between -2 and 2; enough cells,0.62,4994,inactive
SKA1,0.36,migration z between -2 and 2; enough cells,0.98,6132,inactive
STBD1,-0.55,migration z between -2 and 2; enough cells,0.74,6050,inactive
ANGPT2,-2.93,migration z below -2; enough cells,0.24,5713,active
GGPS1,0.05,migration z between -2 and 2; enough cells,0.82,7499,inactive
SF3B1,-3,migration z below -2; enough cells,0.1,5720,active
ATP11A,0.06,migration z between -2 and 2; enough cells,0.9,6866,inactive
DEFB134,-0.39,migration z between -2 and 2; enough cells,0.78,5695,inactive
FDXR,0.23,migration z between -2 and 2; enough cells,0.85,5418,inactive
DTD2,-0.64,migration z between -2 and 2; enough cells,0.73,4927,inactive
SLC66A2,0.25,migration z between -2 and 2; enough cells,0.94,6267,inactive
TSACC,0.75,migration z between -2 and 2; enough cells,1.07,4346,inactive
SERPINF1,1.02,migration z between -2 and 2; enough cells,1,4846,inactive
INTS1,-2.67,migration z below -2; enough cells,0.2,5780,active
LRRC66,1.12,migration z between -2 and 2; enough cells,1.18,6458,inactive
TGM4,-0.16,migration z between -2 and 2; enough cells,0.78,5918,inactive
RNASE9,-0.45,migration z between -2 and 2; enough cells,0.76,5012,inactive
AKR1C6P,-2.52,migration z below -2; enough cells,0.32,3568,active
IVNS1ABP,0.19,migration z between -2 and 2; enough cells,0.94,5600,inactive
HSD17B10,-1.03,migration z between -2 and 2; enough cells,0.6,5910,inactive
NUP37,-0.22,migration z between -2 and 2; enough cells,0.83,5692,inactive

8 entries from above in another layout:
gene | migration robust z-score | migration class with cell-count check | migration relative to mock | nuclei per well, duplicate mean | Call
PELP1 | 0.01 | migration z between -2 and 2; enough cells | 0.9 | 4364 | inactive
SF3A3 | -1.25 | migration z between -2 and 2; enough cells | 0.56 | 5292 | inactive
TRIM77 | 0.34 | migration z between -2 and 2; enough cells | 0.87 | 6296 | inactive
FECH | -0.96 | migration z between -2 and 2; enough cells | 0.62 | 4994 | inactive
SKA1 | 0.36 | migration z between -2 and 2; enough cells | 0.98 | 6132 | inactive
STBD1 | -0.55 | migration z between -2 and 2; enough cells | 0.74 | 6050 | inactive
ANGPT2 | -2.93 | migration z below -2; enough cells | 0.24 | 5713 | active
GGPS1 | 0.05 | migration z between -2 and 2; enough cells | 0.82 | 7499 | inactive

The list goes on:
gene,migration robust z-score,migration class with cell-count check,migration relative to mock,"nuclei per well, duplicate mean",Call
DSCAML1,-1.57,migration z between -2 and 2; enough cells,0.48,5244,inactive
RPL35,-1.73,migration z between -2 and 2; enough cells,0.44,4428,inactive
IQCC,-0.15,migration z between -2 and 2; enough cells,0.84,5730,inactive
WBP2,-1.01,migration z between -2 and 2; enough cells,0.63,7177,inactive
F8,-0.9,migration z between -2 and 2; enough cells,0.63,3649,inactive
SHPK,-0.57,migration z between -2 and 2; enough cells,0.7,3504,inactive
SFXN2,-0.31,migration z between -2 and 2; enough cells,0.74,5584,inactive
SLC22A2,0.29,migration z between -2 and 2; enough cells,0.86,6412,inactive
RPS12,-1.72,migration z between -2 and 2; enough cells,0.44,4869,inactive
HERC1,-0.47,migration z between -2 and 2; enough cells,0.71,4693,inactive
SERP2,-0.82,migration z between -2 and 2; enough cells,0.67,3342,inactive
RBPJL,-1.68,migration z between -2 and 2; enough cells,0.48,4322,inactive
PLCH1,1.33,migration z between -2 and 2; enough cells,1.06,5892,inactive
SYNCRIP,-0.32,migration z between -2 and 2; enough cells,0.8,5406,inactive
ISY1,-1.58,migration z between -2 and 2; enough cells,0.48,6178,inactive
THAP12,0.94,migration z between -2 and 2; enough cells,0.99,4876,inactive
ZNF213,-0.05,migration z between -2 and 2; enough cells,0.88,7288,inactive
ARSF,0.24,migration z between -2 and 2; enough cells,0.85,6000,inactive
SF3A2,-0.72,migration z between -2 and 2; enough cells,0.7,5168,inactive
HSD17B3,0.42,migration z between -2 and 2; enough cells,0.88,6819,inactive
